Experimental data: article PMC11528048
No constants are given. Whether binding was seen depends on the method and setting. Some binding calls cover weakened binding; strength is not graded here.

Assays:
Experiment in all cases: two-hybrid; baits fused to Gal4BD, preys fused to Gal4AD, co-transformed into reporter strain PJ69-4A; growth on SC-Trp-Leu-His (HIS3, weak/moderate) and SC-Trp-Leu-Ade (ADE2, strong), 3 days at 30 °C
[1] = target: T1, KKE/D domain of Nop58 (Nop58(451-511)) (S. cerevisiae) (UniProt Q12499)
T1 sequence: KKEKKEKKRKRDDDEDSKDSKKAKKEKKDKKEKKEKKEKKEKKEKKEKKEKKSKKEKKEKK

[2] = target: T2, KKE/D domain of Rpa34 (Rpa34(183-233)) (S. cerevisiae) (UniProt P47006)
T2 sequence: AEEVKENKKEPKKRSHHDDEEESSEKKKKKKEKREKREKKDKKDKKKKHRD

[3] = target: T3, KKE/D repeats of Pxr1 (Pxr1(172-213)) (S. cerevisiae) (UniProt P53335)
T3 sequence: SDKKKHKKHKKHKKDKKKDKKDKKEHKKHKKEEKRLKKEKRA

[4] = target: T4, KKE/D domain of Nop56 (Nop56(441-504)) (S. cerevisiae) (UniProt Q12460)
T4 sequence: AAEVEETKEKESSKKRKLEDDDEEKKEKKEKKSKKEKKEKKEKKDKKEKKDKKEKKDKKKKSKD

[5] = target: T5, KKE/D repeats of Cbf5 (Cbf5(433-483)) (S. cerevisiae) (UniProt P33322)
T5 sequence: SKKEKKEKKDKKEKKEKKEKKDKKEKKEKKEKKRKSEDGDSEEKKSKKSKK

Nop58 (S. cerevisiae) = target: T6, Nop58 (S. cerevisiae) (UniProt Q12499)
T6 sequence: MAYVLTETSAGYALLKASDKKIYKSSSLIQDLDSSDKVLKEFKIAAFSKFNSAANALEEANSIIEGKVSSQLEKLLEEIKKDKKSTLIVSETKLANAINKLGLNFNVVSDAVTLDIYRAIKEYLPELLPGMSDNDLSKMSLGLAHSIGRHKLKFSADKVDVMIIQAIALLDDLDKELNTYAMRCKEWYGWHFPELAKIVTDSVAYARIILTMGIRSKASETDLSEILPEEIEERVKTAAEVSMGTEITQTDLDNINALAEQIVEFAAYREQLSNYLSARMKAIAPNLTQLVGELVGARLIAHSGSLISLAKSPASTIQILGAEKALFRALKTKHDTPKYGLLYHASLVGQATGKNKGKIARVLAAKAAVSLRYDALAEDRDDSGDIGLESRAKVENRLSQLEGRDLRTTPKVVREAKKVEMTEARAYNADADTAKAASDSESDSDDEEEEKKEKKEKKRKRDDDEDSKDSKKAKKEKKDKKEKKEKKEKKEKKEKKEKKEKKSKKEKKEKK

Nop56 (S. cerevisiae) = target: T7, Nop56 (S. cerevisiae) (UniProt Q12460)
T7 sequence: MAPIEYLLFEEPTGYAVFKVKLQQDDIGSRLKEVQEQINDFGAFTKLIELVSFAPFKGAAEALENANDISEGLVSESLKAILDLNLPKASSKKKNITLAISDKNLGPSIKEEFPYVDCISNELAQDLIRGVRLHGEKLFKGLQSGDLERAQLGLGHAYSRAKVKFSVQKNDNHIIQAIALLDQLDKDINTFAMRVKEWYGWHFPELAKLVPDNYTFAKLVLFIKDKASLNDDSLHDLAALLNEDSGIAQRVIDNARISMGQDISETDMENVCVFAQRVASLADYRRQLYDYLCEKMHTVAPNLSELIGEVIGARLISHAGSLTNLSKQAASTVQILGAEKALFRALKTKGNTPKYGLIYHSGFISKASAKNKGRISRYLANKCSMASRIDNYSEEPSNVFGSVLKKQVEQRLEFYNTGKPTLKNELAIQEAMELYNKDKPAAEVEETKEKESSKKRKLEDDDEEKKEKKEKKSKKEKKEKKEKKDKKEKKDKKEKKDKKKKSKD

Measured: binding

B1: KKE/D domain of Nop58 (Nop58(451-511)) (domain or fragment, UniProt Q12499 451-511)
chain: T1 sequence
binds: [1] | [2]

B2: Pxr1's isolated KKE/D domain (Pxr1(149-271)) (domain or fragment, UniProt P53335 149-271)
chain: AKKRKREGDDSEDEDDDDKEDKDSDKKKHKKHKKHKKDKKKDKKDKKEHKKHKKEEKRLKKEKRAEKTKETKKTSKLKSSESASNIPDAVNTRLSVRSKWIKQKRAALMDSKALNEIFMITND
binds: [3] | [4] | [1] | [5]

SDKKKHKKHKKHKKDKKKDKKDKKEHKKHKKEEKRLKKEKRA (domain or fragment, UniProt P53335 172-213) [KKE/D repeats of Pxr1 (Pxr1(172-213))]
binds: [2]

B3: full-length Pxr1 (protein, UniProt P53335 1-271)
chain: MGLAATRTKQRFGLDPRNTAWSNDTSRFGHQFLEKFGWKPGMGLGLSPMNSNTSHIKVSIKDDNVGLGAKLKRKDKKDEFDNGECAGLDVFQRILGRLNGKESKISEELDTQRKQKIIDGKWGIHFVKGEVLASTWDPKTHKLRNYSNAKKRKREGDDSEDEDDDDKEDKDSDKKKHKKHKKHKKDKKKDKKDKKEHKKHKKEEKRLKKEKRAEKTKETKKTSKLKSSESASNIPDAVNTRLSVRSKWIKQKRAALMDSKALNEIFMITND
not listed: [2]
binds: all other assays above

B4: KKE/D domain of Nop56 (Nop56(441-504)) (domain or fragment, UniProt Q12460 441-504)
chain: T4 sequence
binds: [4] | [2]
